Literature values in US20080015223A1, “Pyrazole Derivatives as Modulators of the 5-Ht2a Serotonin Receptor Useful for the Treatment of Disorders Related Thereto” (Arena Pharmaceuticals, Inc., priority 2004, published 2008).
Some results were stated once for a whole list of compounds, not compound by compound.

System: diabetic rats

Question: For `Cc1nc2sccn2c(=O)c1CCN1CCC(=C(c2ccc(F)cc2)c2ccc(F)cc2)CC1` [ritanserin], which “correction of a 19.8% sciatic motor conduction deficit” value is on record?
Answer: 82.6-99.7%

Question: With `COc1cccc(CCc2ccccc2OCC(CN(C)C)OC(=O)CCC(=O)O)c1` (centres unmarked) [sarpogrelate] as the compound, how does the “correction of a 19.8% sciatic motor conduction deficit” value read?
Answer: 82.6-99.7%
